These are yes or no findings as the source states them, for the method shown. Binding calls can cover weak binding; strength is not graded here. Sequences can lack the tags named with a protein.
B1: 1-1-2 mutant (alternative splicing variant of human integrin α4) with C-terminal FLAG tag, secreted into COS1 culture supernatant (receptor, not shown: small tags and cut ends)
chain: YNVDTESALLYQGPHNTLFGYSVVLHSHGANRWLLVGAPTANWLANASVINPGAIYRCRIGKNPGQTCEQLQLGSPNGEPCGKTCLEERDNQWLGVTLSRQPGENGSIVTCGHRWKNIFYIKNENKLPTGGCYGVPPDLRTELSKRIAPCYQDYVKKFGENFASCQAGISSFYTKDLIVMGAPGSSYWTGSLFVYNITTNKYKAFLDKQNQVKFGSYLGYSVGAGHFRSQHTTEVVGGAPQHEQIGKAYIFSIDEKELNILHEMKGKKLGSYFGASVCAVDLNADGFSDLLVGAPMQSTIREEGRVFVYINSGSGAVMNAMETNLVGSDKYAARFGESIVNLGDIDNDGFEGN
B2: 7-3-2 mutant (alternative splicing variant of human integrin α4) with C-terminal FLAG tag, secreted into COS1 culture supernatant (receptor, not shown: small tags and cut ends)
chain: YNVDTESALLYQGPHNTLFGYSVVLHSHGANRWLLVGAPTANWLANASVINPGAIYRCRIGKNPGQTCEQLQLGSPNGEPCGKTCLEERDNQWLGVTLSRQPGENGSIVTCGHRWKNIFYIKNENKLPTGGCYGVPPDLRTELSKRIAPCYQDYVKKFGENFASCQAGISSFYTKDLIVMGAPGSSYWTGSLFVYNITTNKYKAFLDKQNQVKFGSYLGYSVGAGHFRSQHTTEVVGGAPQHEQIGKAYIFSIDEKELNILHEMKGKKLGSYFGASVCAVDLNADGFSDLLVGAPMQSTIREEGRVFVYINSGSGAVMNAMETNLVGSDKYAARFGESIVNLGDIDNDGFEDVAIGAPQEDDLQGAIYIYNGRADGISSTFSQRIEGLQISKSLSMFGQSISGQIDADNNGYVDVAVGAFRSDSAVLLRTRPVVIVDASLSHPESVNRTKFDCVENGWPSVCIDLTLCFSYKGKEVPGYIGGYALQY
B3: 1-2-1 mutant (alternative splicing variant of human integrin α4) with C-terminal FLAG tag, secreted into COS1 culture supernatant (receptor, not shown: small tags and cut ends)
chain: YNVDTESALLYQGPHNTLFGYSVVLHSHGANRWLLVGAPTANWLANASVINPGAIYRCRIGKNPGQTCEQLQLGSPNGEPCGKTCLEERDNQWLGVTLSRQPGENGSIVTCGHRWKNIFYIKNENKLPTGGCYGVPPDLRTELSKRIAPCYQGSISKYRART

Protein sequences, listed by entry. Tags and fused reporters are not part of them. Lines headed by an entry give the natural chain unless they say otherwise; changes in a name come on top.
UniProt P10451: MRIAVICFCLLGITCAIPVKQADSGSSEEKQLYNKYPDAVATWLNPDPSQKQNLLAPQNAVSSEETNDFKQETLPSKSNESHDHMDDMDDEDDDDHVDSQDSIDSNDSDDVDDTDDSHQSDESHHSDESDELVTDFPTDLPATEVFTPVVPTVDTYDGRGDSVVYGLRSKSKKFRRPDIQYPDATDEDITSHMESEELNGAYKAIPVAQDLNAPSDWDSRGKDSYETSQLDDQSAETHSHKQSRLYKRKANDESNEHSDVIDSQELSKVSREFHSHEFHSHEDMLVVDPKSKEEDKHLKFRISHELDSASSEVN

Biological target: human OPN RAA Nhalf protein (human) (UniProt P10451)
Assay: ligand solid phase ELISA: OPN RAA Nhalf immobilised, COS1 supernatant, anti-FLAG detection

binding, binds:
10-7-2 mutant (alternative splicing variant of human integrin α4) with C-terminal FLAG tag, secreted into COS1 culture supernatant (from UniProt P13612 34-641) (receptor)
10-7-3 mutant (alternative splicing variant of human integrin α4) with C-terminal FLAG tag, secreted into COS1 culture supernatant (from UniProt P13612 34-640) (receptor)
B1
B2
B3
